In PubChem BioAssay AID248 (DTP/NCI, 2004):
The list does not hold the whole screen: it gathers tests that were run many times, whatever their T/C, doses with no T/C, and many T/C values between a quarter and a half above the control. Other doses and runs of a compound stand elsewhere. T/C: endpoint of the treated group in % of that of the vehicle group. Some doses have a count of surviving animals in place of a T/C: the source holds a T/C of zero for them, seemingly a mark for toxic or unscored doses. Some survivor counts are full or nearly so, which does not show that the dose was tolerated: survival well below the control is almost never listed, so the zero probably covers shortened survival too. Survivors were counted at the toxicity check, usually on the fifth day, unless a day is given; later deaths do not show. Schedule codes are those of the source, taken here to give the interval after Q, in days (D) or hours (H), and the number of doses after X. Some entries hold several experiments; the values are given in rising order. Some schedules carry Z or #; the key to these is not given. Some molecules as drawn cover several salts, stereoisomers or complexes of the source; a dose is that of the sample tested. For survival time, this PubChem deposit counts one and a half times the control or more as active, and values a quarter to a half above the control carry no call in these data; other NCI protocols may use other cut-offs. Some T/C values carry the count of animals alive at the toxicity check (mostly the fifth day); without a count, all were alive then. Counts like (3×) stand for listed records that agree.

Tested on: L1210 leukemia ip in BDF1 mice, survival T/C
Assay: NCI In Vivo Anticancer Drug Screen. Data for tumor model L1210 Leukemia (intraperitoneal) in B6D2F1 (BDF1) mice
Conditions: higher T/C = longer survival
[1] = T/C endpoint: mean survival time, dose: 400.0 mg/kg/injection, schedule: Q01DX009 (ip), vehicle: saline with Tween-80
[2] = T/C endpoint: mean survival time, dose: 400.0 mg/kg/injection, schedule: Q01DX001 (ip), vehicle: Klucel (hydroxypropylcellulose) (HPC)
[3] = T/C endpoint: mean survival time, dose: 200.0 mg/kg/injection, schedule: Q04DX003 (ip), vehicle: saline
[4] = T/C endpoint: mean survival time, dose: 400.0 mg/kg/injection, schedule: Q04DX003 (ip), vehicle: saline
[5] = T/C endpoint: mean survival time, dose: 400.0 mg/kg/injection, schedule: Q01DX001 (ip), vehicle: carboxymethylcellulose (CMC)
[6] = T/C endpoint: mean survival time, dose: 100.0 mg/kg/injection, schedule: Q04DX002 (ip), vehicle: saline with Tween-80
[7] = T/C endpoint: mean survival time, dose: 200.0 mg/kg/injection, schedule: Q04DX002 (ip), vehicle: saline with Tween-80
[8] = T/C endpoint: mean survival time, dose: 400.0 mg/kg/injection, schedule: Q04DX002 (ip), vehicle: saline with Tween-80

## [NH-]C(CC(N)=O)C(=O)O.[NH-]C(CC(N)=O)C(=O)O.[Zn+2] (stereo not given)
T/C endpoint: mean survival time, dose: 100.0 mg/kg/injection, schedule: Q04DX002 (ip), vehicle: saline
  survivor count: 1 of 3
T/C endpoint: mean survival time, dose: 200.0 mg/kg/injection, schedule: Q04DX002 (ip), vehicle: saline
  survivor count: 0 of 3
T/C endpoint: mean survival time, dose: 400.0 mg/kg/injection, schedule: Q04DX002 (ip), vehicle: saline
  survivor count: 0 of 3

## NNc1nnc(-c2ccccc2)c2ccccc12
T/C endpoint: mean survival time, dose: 75.0 mg/kg/injection, schedule: Q01DX001 (ip), vehicle: carboxymethylcellulose (CMC)
  survivor count: 1 of 6
T/C endpoint: mean survival time, dose: 150.0 mg/kg/injection, schedule: Q01DX001 (ip), vehicle: carboxymethylcellulose (CMC)
  survivor count: 0 of 6
T/C endpoint: mean survival time, dose: 300.0 mg/kg/injection, schedule: Q01DX001 (ip), vehicle: carboxymethylcellulose (CMC)
  survivor count: 0 of 6

## O=C(N/N=C/c1ccc(-c2ccccc2)cc1)Nc1ccccc1
[1]
  survivor count: 5 of 6

## CCCC1CCCC(=O)N1 (stereo not given)
T/C endpoint: mean survival time, dose: 300.0 mg/kg/injection, schedule: Q01DX001 (ip), vehicle: saline
  survivor count: 0 of 6

## Cc1ccc(C(=O)O)cc1-n1c(-c2ccc(Cl)cc2)nnc1-c1ccc(Br)cc1
[2]
  survivor count: 1 of 6

## COc1ccc2c(c1)CC1c3[nH]c4ccccc4c3CCN1C2 (stereo not given)
[2]
  survivor count: 0 of 6

## c1ccc(C2CN3CCSC3=N2)cc1 (stereo not given)
T/C endpoint: mean survival time, dose: 50.0 mg/kg/injection, schedule: Q01DX009 (ip), vehicle: saline
  survivor count: 0 of 6
T/C endpoint: mean survival time, dose: 50.0 mg/kg/injection, schedule: Q04DX003 (ip), vehicle: saline
  survivor count: 0 of 4
T/C endpoint: mean survival time, dose: 100.0 mg/kg/injection, schedule: Q01DX009 (ip), vehicle: saline
  survivor count: 0 of 6
T/C endpoint: mean survival time, dose: 100.0 mg/kg/injection, schedule: Q04DX003 (ip), vehicle: saline
  survivor count: 0 of 4
T/C endpoint: mean survival time, dose: 200.0 mg/kg/injection, schedule: Q01DX009 (ip), vehicle: saline
  survivor count: 0 of 6
[3]
  survivor count: 1 of 4
T/C endpoint: mean survival time, dose: 400.0 mg/kg/injection, schedule: Q01DX009 (ip), vehicle: saline
  survivor count: 0 of 6
[4]
  survivor count: 0 of 4

## Cn1c(=O)c2ncn(CC3CCCCC3)c2n(C)c1=O
[5]
  survivor count: 4 of 4

## CCN(C(=O)c1cccc(C(=O)N(CC)c2ccccc2C)c1)c1ccccc1C
T/C endpoint: mean survival time, dose: 400.0 mg/kg/injection, schedule: Q04DX003 (ip), vehicle: saline with Tween-80
  survivor count: 5 of 6

## COc1cccc(NC(=O)CCC(=O)O)c1
T/C endpoint: mean survival time, dose: 100.0 mg/kg/injection, schedule: Q01DX009 (ip), vehicle: saline with Tween-80
  survivor count: 6 of 6

## Cc1ccc2c(c1[N+](=O)[O-])C(=O)c1ccccc1C2=O
T/C endpoint: mean survival time, dose: 200.0 mg/kg/injection, schedule: Q01DX009 (ip), vehicle: Klucel (hydroxypropylcellulose) (HPC)
  survivor count: 1 of 3

## CN1CCC(=C(C#N)C#N)CC1
[3]
  survivor count: 1 of 6
[4]
  survivor count: 0 of 6

## CO[C@H]1/C=C/O[C@@]2(C)Oc3c(C)c(O)c4c(O)c(c(/C=N/N5C(C)CN(Cc6ccccc6)CC5C)c(O)c4c3C2=O)NC(=O)/C(C)=C\C=C\[C@H](C)[C@H](O)[C@@H](C)[C@@H](O)[C@@H](C)[C@H](OC(C)=O)[C@@H]1C (stereo not given in full)
T/C endpoint: median survival time, dose: 200.0 mg/kg/injection, schedule: Q01DX005 (ip), vehicle: other
  survivor count: 7 of 8
T/C endpoint: median survival time, dose: 800.0 mg/kg/injection, schedule: Q01DX005 (oral), vehicle: Klucel (hydroxypropylcellulose) (HPC)
  T/C: 128 % of control

## C[S+](C)Cc1ccccc1
T/C endpoint: mean survival time, dose: 200.0 mg/kg/injection, schedule: Q01DX009 (ip), vehicle: other
  survivor count: 3 of 6
[3]
  survivor count: 0 of 6
T/C endpoint: mean survival time, dose: 400.0 mg/kg/injection, schedule: Q01DX009 (ip), vehicle: other
  survivor count: 0 of 6

## C[N+]1(CC(O)COc2ccc(Nc3ccc(N)c4c3C(=O)c3ccccc3C4=O)cc2)CCOCC1 (stereo not given)
T/C endpoint: mean survival time, dose: 200.0 mg/kg/injection, schedule: Q01DX001 (ip), vehicle: acetone
  survivor count: 0 of 6
T/C endpoint: mean survival time, dose: 400.0 mg/kg/injection, schedule: Q01DX001 (ip), vehicle: acetone
  survivor count: 0 of 6

## CCC[CH2][Sn]([Br])([c]1ccccc1)[c]1ccccc1
T/C endpoint: mean survival time, dose: 1.56 mg/kg/injection, schedule: Q01DX009 (ip), vehicle: saline with Tween-80
  survivor count: 3 of 6
T/C endpoint: mean survival time, dose: 3.13 mg/kg/injection, schedule: Q01DX009 (ip), vehicle: saline with Tween-80
  survivor count: 3 of 6
T/C endpoint: mean survival time, dose: 6.25 mg/kg/injection, schedule: Q01DX009 (ip), vehicle: saline with Tween-80
  survivor count: 1 of 6
[6]
  survivor count: 0 of 3
[7]
  survivor count: 0 of 3
[8]
  survivor count: 0 of 3

## CCC1(c2ccccc2)NC(=O)NC1=O (stereo not given)
[1]
  survivor count: 1 of 6

## CC[n+]1cccc(NC(=O)c2ccc(NC(=O)c3ccc(C(=O)Nc4ccc(C(=O)Nc5ccc[n+](CC)c5)cc4)cc3)cc2)c1
T/C endpoint: mean survival time, dose: 0.5 mg/kg/injection, schedule: Q01DX009 (ip), vehicle: saline
  T/C: 127 % of control
T/C endpoint: mean survival time, dose: 1.0 mg/kg/injection, schedule: Q01DX009 (ip), vehicle: saline, evaluated on day 30
  T/C: 130 % of control
T/C endpoint: mean survival time, dose: 1.0 mg/kg/injection, schedule: Q01DX009 (ip), vehicle: saline, run until all animals had died
  T/C: 135 % of control
T/C endpoint: mean survival time, dose: 2.0 mg/kg/injection, schedule: Q01DX009 (ip), vehicle: saline, evaluated on day 30
  T/C: 139 % of control
T/C endpoint: mean survival time, dose: 2.0 mg/kg/injection, schedule: Q01DX009 (ip), vehicle: saline, run until all animals had died
  T/C: 141 % of control
T/C endpoint: mean survival time, dose: 8.0 mg/kg/injection, schedule: Q01DX001 (ip), vehicle: saline, evaluated on day 30
  T/C: 126 % of control
T/C endpoint: mean survival time, dose: 8.0 mg/kg/injection, schedule: Q01DX001 (ip), vehicle: saline, run until all animals had died
  T/C: 130 % of control
T/C endpoint: mean survival time, dose: 8.0 mg/kg/injection, schedule: Q01DX009 (ip), vehicle: saline
  T/C: 149 % of control
T/C endpoint: mean survival time, dose: 10.0 mg/kg/injection, schedule: Q01DX Z (ip), vehicle: carboxymethylcellulose (CMC)
  survivor count: 6 of 6
T/C endpoint: mean survival time, dose: 16.0 mg/kg/injection, schedule: Q01DX001 (ip), vehicle: saline, evaluated on day 30
  T/C: 126 % of control
T/C endpoint: mean survival time, dose: 16.0 mg/kg/injection, schedule: Q01DX001 (ip), vehicle: saline, run until all animals had died
  T/C: 139 % of control
T/C endpoint: mean survival time, dose: 32.0 mg/kg/injection, schedule: Q01DX001 (ip), vehicle: saline
  T/C: 145 % of control
T/C endpoint: mean survival time, dose: 32.0 mg/kg/injection, schedule: Q01DX009 (ip), vehicle: saline
  survivor count: 6 of 6
T/C endpoint: mean survival time, dose: 128.0 mg/kg/injection, schedule: Q01DX001 (ip), vehicle: saline
  survivor count: 6 of 6

## O=C1OCC/C1=C/OS(=O)(=O)C(F)(F)F
T/C endpoint: mean survival time, dose: 200.0 mg/kg/injection, schedule: Q01DX009 (ip), vehicle: water
  survivor count: 2 of 6

## Cc1cc(C)c(O)c(C)c1.[Hg]
T/C endpoint: mean survival time, dose: 25.0 mg/kg/injection, schedule: Q01DX001 (ip), vehicle: Klucel (hydroxypropylcellulose) (HPC)
  survivor count: 2 of 3
T/C endpoint: mean survival time, dose: 50.0 mg/kg/injection, schedule: Q01DX001 (ip), vehicle: Klucel (hydroxypropylcellulose) (HPC)
  survivor count: 0 of 3
T/C endpoint: mean survival time, dose: 100.0 mg/kg/injection, schedule: Q01DX001 (ip), vehicle: Klucel (hydroxypropylcellulose) (HPC)
  survivor count: 0 of 3
T/C endpoint: mean survival time, dose: 200.0 mg/kg/injection, schedule: Q01DX001 (ip), vehicle: Klucel (hydroxypropylcellulose) (HPC)
  survivor count: 0 of 3
[2]
  survivor count: 0 of 3

## Cc1ccc(Cl)cc1NC(=O)N1CCCCC1C (stereo not given)
[6]
  T/C: 100 (2×), 103, 128 % of control
[7]
  T/C: 91, 92, 95, 98 % of control
[1]
  survivor count: 3 of 3 and 6 of 6
[8]
  T/C: 89, 102, 106 % of control [5 of 6 alive]
  survivor count: 1 of 3

## COC(=O)c1ccc(OC(=O)Nc2cc(Cl)ccc2C)cc1
[1]
  survivor count: 6 of 6

## COc1ccc(Nc2ccnc3cc(Cl)ccc23)cc1CN(CCCl)C(C)CCl (stereo not given)
T/C endpoint: mean survival time, dose: 50.0 mg/kg/injection, schedule: Q01DX001 (ip), vehicle: carboxymethylcellulose (CMC)
  survivor count: 1 of 4
T/C endpoint: mean survival time, dose: 100.0 mg/kg/injection, schedule: Q01DX001 (ip), vehicle: carboxymethylcellulose (CMC)
  survivor count: 1 of 4
T/C endpoint: mean survival time, dose: 200.0 mg/kg/injection, schedule: Q01DX001 (ip), vehicle: carboxymethylcellulose (CMC)
  survivor count: 0 of 4
[5]
  survivor count: 0 of 4

## O=C1CCCCC1Cc1ccccc1 (stereo not given)
T/C endpoint: mean survival time, dose: 400.0 mg/kg/injection, schedule: Q04DX003 (ip), vehicle: acetone
  survivor count: 5 of 6

## CCOC(=O)CNCc1ccc(Cl)c(Cl)c1
T/C endpoint: mean survival time, dose: 400.0 mg/kg/injection, schedule: Q04DX003 (ip), vehicle: water
  survivor count: 2 of 6
